## Results of single-concentration screens

Chains of the proteins cited; added tags and fusions are not shown. Residues count along the entry.
UniProt I6X8D2, whole entry: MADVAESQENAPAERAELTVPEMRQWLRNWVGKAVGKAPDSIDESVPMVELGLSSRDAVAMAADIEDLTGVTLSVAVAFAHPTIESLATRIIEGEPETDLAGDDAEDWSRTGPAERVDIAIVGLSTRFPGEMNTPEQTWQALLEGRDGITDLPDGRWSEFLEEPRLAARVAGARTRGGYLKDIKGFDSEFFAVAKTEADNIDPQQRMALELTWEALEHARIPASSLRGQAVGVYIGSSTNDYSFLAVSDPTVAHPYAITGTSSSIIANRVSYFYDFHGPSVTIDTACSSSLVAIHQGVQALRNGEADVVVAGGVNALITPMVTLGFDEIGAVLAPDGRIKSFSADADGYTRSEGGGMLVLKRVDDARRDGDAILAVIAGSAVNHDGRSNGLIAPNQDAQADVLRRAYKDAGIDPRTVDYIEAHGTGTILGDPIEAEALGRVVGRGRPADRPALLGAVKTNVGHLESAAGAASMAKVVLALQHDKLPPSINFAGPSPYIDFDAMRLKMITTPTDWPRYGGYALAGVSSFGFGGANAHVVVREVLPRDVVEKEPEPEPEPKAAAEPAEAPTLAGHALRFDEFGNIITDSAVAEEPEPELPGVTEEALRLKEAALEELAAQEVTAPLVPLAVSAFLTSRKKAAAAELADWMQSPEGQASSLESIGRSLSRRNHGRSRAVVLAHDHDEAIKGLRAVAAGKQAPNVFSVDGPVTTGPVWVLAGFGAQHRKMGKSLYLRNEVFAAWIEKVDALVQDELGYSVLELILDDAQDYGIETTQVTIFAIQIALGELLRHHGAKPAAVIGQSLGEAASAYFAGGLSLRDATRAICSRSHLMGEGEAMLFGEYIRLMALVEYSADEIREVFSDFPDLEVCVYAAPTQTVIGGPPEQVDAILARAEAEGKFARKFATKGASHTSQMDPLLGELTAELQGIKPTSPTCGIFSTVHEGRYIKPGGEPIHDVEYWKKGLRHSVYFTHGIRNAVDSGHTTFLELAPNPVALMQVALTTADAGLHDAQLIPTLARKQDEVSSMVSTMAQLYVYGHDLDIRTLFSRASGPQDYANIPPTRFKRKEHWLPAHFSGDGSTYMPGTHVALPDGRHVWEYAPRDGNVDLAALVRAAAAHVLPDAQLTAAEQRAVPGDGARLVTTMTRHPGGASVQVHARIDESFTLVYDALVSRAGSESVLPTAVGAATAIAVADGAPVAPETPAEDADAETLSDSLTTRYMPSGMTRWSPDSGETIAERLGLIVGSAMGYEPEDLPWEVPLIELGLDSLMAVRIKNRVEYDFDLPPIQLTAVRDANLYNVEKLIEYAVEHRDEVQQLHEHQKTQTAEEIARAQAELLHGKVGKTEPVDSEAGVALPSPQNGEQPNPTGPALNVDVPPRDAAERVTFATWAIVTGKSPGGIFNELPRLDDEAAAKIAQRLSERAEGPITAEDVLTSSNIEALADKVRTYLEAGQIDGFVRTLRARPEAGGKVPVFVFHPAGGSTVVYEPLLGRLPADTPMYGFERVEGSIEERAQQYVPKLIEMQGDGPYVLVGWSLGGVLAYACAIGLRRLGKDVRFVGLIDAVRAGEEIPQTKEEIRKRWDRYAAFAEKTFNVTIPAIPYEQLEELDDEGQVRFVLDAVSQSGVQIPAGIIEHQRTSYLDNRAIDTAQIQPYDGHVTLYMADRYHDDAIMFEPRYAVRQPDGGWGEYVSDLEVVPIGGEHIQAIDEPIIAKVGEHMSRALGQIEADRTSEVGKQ
UniProt Q4DA54, 1-478: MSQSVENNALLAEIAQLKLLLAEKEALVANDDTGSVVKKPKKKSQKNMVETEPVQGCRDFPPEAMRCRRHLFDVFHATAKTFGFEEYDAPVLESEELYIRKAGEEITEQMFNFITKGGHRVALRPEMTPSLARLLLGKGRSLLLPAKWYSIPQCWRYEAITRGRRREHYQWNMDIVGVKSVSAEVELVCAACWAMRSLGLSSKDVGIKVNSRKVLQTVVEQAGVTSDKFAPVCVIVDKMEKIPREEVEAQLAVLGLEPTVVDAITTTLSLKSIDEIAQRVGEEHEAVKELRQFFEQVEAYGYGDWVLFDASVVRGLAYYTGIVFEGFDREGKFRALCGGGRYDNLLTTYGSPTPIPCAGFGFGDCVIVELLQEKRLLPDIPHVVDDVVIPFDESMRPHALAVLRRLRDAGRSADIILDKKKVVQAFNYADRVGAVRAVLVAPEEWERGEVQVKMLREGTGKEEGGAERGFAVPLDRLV
UniProt A4I591, 1-473: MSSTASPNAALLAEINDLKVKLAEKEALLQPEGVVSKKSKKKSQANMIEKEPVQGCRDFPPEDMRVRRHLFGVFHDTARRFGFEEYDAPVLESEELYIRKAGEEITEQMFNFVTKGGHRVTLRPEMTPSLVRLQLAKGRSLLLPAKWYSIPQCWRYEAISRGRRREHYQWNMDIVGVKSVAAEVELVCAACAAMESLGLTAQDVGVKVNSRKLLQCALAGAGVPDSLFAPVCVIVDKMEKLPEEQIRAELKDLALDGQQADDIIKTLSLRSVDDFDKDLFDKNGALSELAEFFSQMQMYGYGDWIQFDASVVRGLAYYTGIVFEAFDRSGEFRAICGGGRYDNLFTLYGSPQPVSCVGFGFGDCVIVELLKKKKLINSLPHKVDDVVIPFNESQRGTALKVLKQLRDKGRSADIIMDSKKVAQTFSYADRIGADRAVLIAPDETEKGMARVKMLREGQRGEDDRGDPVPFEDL

Source: ChEMBL document CHEMBL3988442, “University of Dundee, Small-Polar-MMV Screening Library” (2021).

Results are given as percent effect. How 0% and 100% were set is not recorded. Most values in the screen are low, and negative values occur. This is an unselected part of the compounds tested.

A: 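Enzyme assay of the thioesterase domain of polyketide synthase 13; the read-out is not stated. Target: Polyketide synthase Pks13, Mycobacterium tuberculosis (UniProt I6X8D2). Tested at 30 µM. The record gives no direction; the compounds picked for IC50 retests had high values, so higher reads as stronger inhibition. Of about 67,000 compounds tested this way, about 300 (0.46%) reached 50% or more in at least one test.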
B: 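Enzyme assay of histidyl-tRNA synthetase; the read-out is not stated. Target: Histidine-tRNA ligase, Trypanosoma cruzi CL Brener (UniProt Q4DA54). Concentration: 30 µM. Direction is inferred from retests: higher values go with stronger inhibition. Size under these conditions: about 69,000 compounds, about 31 of them at 50% or above in at least one test.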
C: 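Histidine-tRNA ligase, Leishmania infantum (UniProt A4I591). Enzyme assay of histidyl-tRNA synthetase; the read-out is not stated. Compounds at 30 µM. Higher reads as stronger inhibition (inferred: compounds with an IC50 in retests scored well above the rest). The assay is labelled LdHisRS but filed under L. infantum. About 69,000 compounds were tested under these conditions; 0.6% (about 410) showed 50% or more at least once.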

| # | Compound | A | B | C |
|---|---|---|---|---|
| 1 | `CN(C)c1cc(CNC(=O)c2ccccc2S(C)(=O)=O)ccn1` | -3.299% | 8.646% | 10.71% |
| 2 | `Cc1c[nH]c(CN2CCCCC2CCn2ccnc2C)c(C)c1=O` (stereo not shown) | 3.174% | 1.176% | 10.32% |
| 3 | `Cc1ccc(CN(C)C(=O)CN2CCc3ccccc3C2)o1` | 2.732% | 7.921% | 13.04% |
| 4 | `CCc1n[nH]c(C2CN(CCCS(C)(=O)=O)CCO2)n1` (stereo not shown) | -19.12% | 3.38% | 4.348% |
| 5 | `Cc1c(C)n(Cc2ccccn2)c2nc3c(c(N)c12)CCCCC3` | -25.26% | -0.5848% | 15.79% |
| 6 | `O=C1CC2(CCN(Cc3ccccn3)C2)CN1c1cncnc1` (stereo not shown) | -26.2% | 0.5525% | 7.519% |
| 7 | `CNc1ncc(CN2CCC(CCc3ccccc3)CC2)cn1` | 2.11% | 4.651% | 0% |
| 8 | `Cc1cc(C)nc(CN(C)C(=O)C(c2cccnc2)N2CCCC2)c1` (stereo not shown) | -21.41% | -2.299% | 20.51% |
| 9 | `Cc1ncccc1Oc1nccnc1C1CCCN(C(C)C)C1` (stereo not shown) | 5.707% | 10.99% | 15.94% |
| 10 | `Cc1nn(C)c(C)c1-c1ccc(=O)n(C(C)C(=O)NCc2ccco2)n1` (stereo not shown) | -5.548% | -0.565% | 2.797% |
| 11 | `CCC(=O)NCC(=O)NC(C)c1ccc(OCCC(C)C)cc1` (stereo not shown) | -3.364% | 1.754% | 16.07% |
| 12 | `CN(Cc1cccc(CCN)c1)Cc1cccc2ncccc12` | -18.88% | 10.45% | 19.58% |
| 13 | `COc1ncccc1CN1CCN(c2noc(C(C)C)n2)CC1` | 0.1447% | 9.392% | 18.31% |
| 14 | `Cc1ccc(N2CCCc3sc(C(=O)NCc4cccnc4)nc32)nn1` | -17.29% | 3.306% | 7.619% |
| 15 | `CCOc1ccc(-c2cc(=O)n3c(n2)CCCCC3)cc1` | 9.921% | 3.96% | -4.348% |
| 16 | `O=C(NCC1CC1)C1=NOC2(CCN(Cc3ccc(Cl)c(F)c3)C2)C1` (stereo not shown) | -40.08% | 0.4975% | 8.108% |
| 17 | `CCn1ccnc1CN1CCN(CCC(=O)NC(C)(C)C)CC1C` (stereo not shown) | -12.61% | 0.5348% | 19.23% |
| 18 | `CC1CCN(CCCNC(=O)NC(C)c2nncn2C)CC1` (stereo not shown) | -10.94% | -0.5848% | 1.818% |
| 19 | `COCCNC(=O)[C@H]1CN(Cc2sccc2C)C[C@H]2OCC[C@@H]12` | -7.462% | 0% | 24.19% |
| 20 | `Fc1cnc(N2CCCn3c(nnc3Cn3cccn3)C2)nc1` | -8.985% | 8.021% | 5.983% |
| 21 | `COc1ccc(-c2ccnc(C3CCNCC3)c2)cc1` | 10.31% | 2.985% | -3.158% |
| 22 | `c1cncc(COCC2CN(Cc3ccsc3)Cc3ccnn3C2)c1` (stereo not shown) | 1.848% | 7.609% | 17.11% |
| 23 | `CC(C)N1c2sc(-c3ccccc3)nc2CC1C(=O)NC1CCCC1` (stereo not shown) | -29.25% | 0% | 20% |
| 24 | `O=C1CCC2(CCCO2)CCN1Cc1noc(C2CCCC2)n1` (stereo not shown) | -6.955% | 0% | 17.71% |
| 25 | `CN1CCN(C(=O)C2CCN(c3cccnn3)C2)CC1` (stereo not shown) | 6.432% | 2.985% | -34.74% |
| 26 | `COCCN(C/C=C/c1ccccc1)Cc1ncc[nH]1` | -32.38% | 4.082% | 11.43% |
| 27 | `COc1ccc2c(c1)OCC(Cc1cc(C(=O)N3CCCC3)ccn1)C2` (stereo not shown) | -8.536% | 10.45% | 22.89% |
| 28 | `Cc1ncc(CN2CCC(c3nc(O)cc(-c4ccsc4)n3)CC2)cn1` | 6.504% | 6.202% | 12.77% |
| 29 | `CC(C)c1ncc2c(n1)CN(Cc1nc(-c3ccsc3)no1)CC2` | -9.117% | 10.4% | 28.95% |
| 30 | `CN1CCOC(CNCCCOc2ccc(C#N)cc2)C1` (stereo not shown) | -6.164% | 1.064% | -1.429% |
| 31 | `OC(CNC1CCOCC1)c1cccc(OCc2ccccc2)c1` (stereo not shown) | 1.71% | 1.98% | 9.89% |
| 32 | `COc1ccccc1N1CCN(C(=O)CCn2ccc(C)n2)CC1(C)C` | -12.81% | 5.806% | 13.13% |
| 33 | `Cc1cc(CN2CCN(Cc3ccccc3F)CC2)no1` | -16.81% | 5.155% | 12.64% |
| 34 | `Cc1nc(C(=O)N2CCCC(c3cc(C(F)(F)F)[nH]n3)C2)c[nH]1` (stereo not shown) | 5.237% | 2.924% | 14.55% |
| 35 | `Cc1nc2n(n1)CC(NCc1csc(-c3ccsc3)n1)CC2` (stereo not shown) | -11.62% | 5.572% | 4.63% |
| 36 | `CCc1sc(-c2nnc(CNCCn3cc(C)cn3)o2)cc1C` | -10.88% | 5.703% | 6.25% |
| 37 | `O=C(NCC1CC1)C1CCC2(CCNCC2)C1` (stereo not shown) | -9.032% | 0.9709% | 3.883% |
| 38 | `O=C(Cn1nnc(-c2cc3ccccc3o2)n1)N1CCOCC1` | -3.418% | 6.897% | 13.39% |
| 39 | `CC(C)S(=O)(=O)N1CCC(c2cc3n(n2)[C@@H](C(F)(F)F)C[C@@H](C)N3)C1` (stereo partly shown) | -23.03% | 4.918% | 5.109% |
| 40 | `Cc1ccc(Cl)cc1NCc1nc2[nH]c(C)c(C)c(=O)n2n1` | -11.98% | 4.95% | 18.48% |
| 41 | `CN(C1CCN(c2ccccn2)CC1)S(=O)(=O)c1ccccc1F` | 0.09063% | 10.34% | 16.67% |
| 42 | `Cc1cnc(NC(=O)c2cccc(CN(C)Cc3ccno3)c2)s1` | -46.97% | -9.184% | 14.29% |
| 43 | `COCC(=O)N1CC[C@@H](O)[C@@H]1Cc1ccccc1` | -7.967% | 1.639% | 7.843% |

The last 3 entries again:

{"compound": "CN(C1CCN(c2ccccn2)CC1)S(=O)(=O)c1ccccc1F", "A": 0.09063, "B": 10.34, "C": 16.67}
{"compound": "Cc1cnc(NC(=O)c2cccc(CN(C)Cc3ccno3)c2)s1", "A": -46.97, "B": -9.184, "C": 14.29}
{"compound": "COCC(=O)N1CC[C@@H](O)[C@@H]1Cc1ccccc1", "A": -7.967, "B": 1.639, "C": 7.843}